Test results reported in US8937152B2 (Italfarmaco SpA, priority 2007, dated 2015).

Assay: general procedure: Fmoc solid-phase peptide synthesis; Fmoc-Lys(Boc)-Trt(Cl)-DVB; HATU; DPPA/DIPEA for cyclisation in solution
Settings: whole synthesis

Substance	final HPLC purity
PEPTIDE1{[Ser(Bn)].F.[Pro(4-OCONHC2H4NH2)].F.[3,8MNal].K}$PEPTIDE1,PEPTIDE1,1:R1-6:R2$$$V2.0	98.2%
PEPTIDE1{[Tyr(Bn)].F.[Pro(4-OCONHC2H4NH2)].F.[2,5MhPhe].K}$PEPTIDE1,PEPTIDE1,1:R1-6:R2$$$V2.0	99.0%
PEPTIDE1{[Tyr(Bn)].F.[Pro(4-OCONHC2H4NH2)].F.[3,8MNal].K}$PEPTIDE1,PEPTIDE1,1:R1-6:R2$$$V2.0	99.1%
PEPTIDE1{[Tyr(Bn)].F.[Pro(4-OCONHC2H4NH2)].Y.[3,8MNal].K}$PEPTIDE1,PEPTIDE1,1:R1-6:R2$$$V2.0	95.4%
PEPTIDE1{[Tyr(Bn)].F.[Pro(4-OCONHC2H4NHMe)].F.[3,8MNal].K}$PEPTIDE1,PEPTIDE1,1:R1-6:R2$$$V2.0	94.5%
cyclo[Tyr(Bn)-Phe-Pro (4-OCONH(CH2)2NH2)-Phe-(D)Nal-Lys]	99.5%
cyclo[Tyr(Bn)-Phe-Pro (4-OCONH(CH2)2NHCH3)-Phg-(D) Sty-Lys]	97.8%
cyclo[Tyr(Bn)-Phe-Pro(4-OCONH(CH2)2NH2)-Phe-(D)hPhe-Lys]	94.5%
cyclo[Tyr(Bn)-Phe-Pro(4-OCONH(CH2)2NH2)-Phe-(D,L)1,4-MNal-Lys] isomer A	80.6%
cyclo[Tyr(Bn)-Phe-Pro(4-OCONH(CH2)2NH2)-Phe-(D,L)1,4-MNal-Lys] isomer B	97.7%
cyclo[Tyr(Bn)-Phe-Pro(4-OCONH(CH2)2NH2)-Phg-(D)hPhe-Lys]	98.8%

HELM strings list residues between dots; [ac] is acetyl, [am] amide, other brackets name non-standard units.
